Laboratory results taken from patent US20120207753A1, “METHODS OF USING CD44 FUSION PROTEINS TO TREAT CANCER” (CENTRE HOSPITALIER UNIVERSITAIRE VAUDOIS, priority 2009, published 2012).
For at least one compound, name, drawing or mass did not settle the structure.

Tests used:
[1] = tested on: U251 cells; experiment: Intracranial tumor growth and survival, transduced U251 cells in Rag-1 mice; type: in vivo, human; details: intracranial U251-Luc; single dose BCNU 10 mg/kg iv or TMZ 5 mg/kg ip
Procedure: (§1) FIG. 12. Antagonists of CD44 are effective therapeutic agents against human GBM in mouse models. A, U87MG and U251 cells were transduced with the retroviruses carrying empty vector and the expression constructs of hsCD44s-Fc, hsCD44v8-v10-Fc, and hsCD44v3-v10 and their serum free cell culture supernatants were collected and analyzed on Western blots using anti-CD44 antibody (Santa Cruz) or anti-human IgG antibody. The molecular weight bars correspond to 199 kDa and 116 kDa. B, 2×10^6 of the transduced U87MG and U251 cells were injected subcutaneously per mouse. Growth rates of the subcutaneous tumors were determined and expressed as the mean of tumor volume (mm^3)+/−SD. Six mice were used for each construct. C, Survival rates of mice following the intracranial injections of transduced U87MG (C-a) and U251 (C-b-c) cells infected with the retroviruses carrying the empty expression vectors, hsCD44s-Fc, hsCD44v8-v10-Fc, hsCD44v3-v10, hsCD44sR41A-Fc, or hsCD44v3-v10R41A-Fc constructs as indicated in the panels. […]
(§2) Mice were used in accordance with the approved IACUC Protocol. […] Following injection, mice were closely monitored and the duration of their survival was recorded. […] Number of surviving mice was recorded. The survival rates were calculated as follows: survival rate (%)=(number of mice still alive/total number of experimental mice)×100%. […]

[2] = tested on: U87MG cells; experiment: Intracranial tumor growth and survival, transduced U87MG cells in Rag-1 mice; type: in vivo, human; details: intracranial U87MG-Luc; single dose BCNU 10 mg/kg iv or TMZ 5 mg/kg ip
Procedure: as §1, §2

Cn1nnc2c(C(N)=O)ncn2c1=O [TMZ, temozolomide]
inhibitory effect on glioma growth as single agent [1]: moderate | inhibitory effect on glioma growth as single agent [2]: moderate
